According to the supplement of paper PMC7858590:
± gives the standard deviation of the averaged measurements. This is one part of the list. This data set is noisy: repeats of one test often differ as much as different tests do.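 Macrophages from blood monocytes of four pooled healthy donors, grown with M-CSF, were M1-like and treated with compounds that shifted resting macrophages M2-like in an initial screen. Z-score: t-test of cell eccentricity (~1000 cells/well) versus same-row DMSO wells. Reprogramming means passing the M2 cutoff of +6 from standard cytokine controls (M1 cutoff −4).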

Tested on: human monocyte-derived macrophages (polarized)
Assay: cell shape (eccentricity) Z-score vs DMSO control; macrophage state: M1-polarized (IFNg + TNFa), cytokines removed before treatment; higher = more elongated, M2-like morphology
Details: 24 h

Structure (SMILES) | cell shape (Z-score) (5 µM) | cell shape (Z-score) (10 µM)
CCC1(CC)C(=O)NC(=O)NC1=O | 0.425 ± 2.4 | 0.961 ± 0.58
C=C(C)[C@@H]1[C@H]2OC(=O)[C@@H]1[C@]1(O)C[C@H]3O[C@]34C(=O)O[C@H]2[C@]14C | 4.23 ± 8.2 | 5.46 ± 6.6
CNc1ccc2oc(C[C@H]3O[C@@]4(CC[C@H]3C)O[C@H]([C@H](C)C(=O)c3ccc[nH]3)[C@H](C)C[C@H]4C)nc2c1C(=O)O | 4.85 ± 8.8 | 2.85 ± 6.1
O=C1NC(=O)c2c1c1c3ccccc3[nH]c1c1[nH]c3ccccc3c21 | 7.69 ± 4.2 | 8.27
CN(C)C(=S)SSC(=S)N(C)C | -5.76 ± 3.9 | -9.71 ± 12
CN1[C@@H]2CC[C@H]1C[C@@H](OC(c1ccccc1)c1ccccc1N)C2 (stereo not given in full) | -1.03 ± 4.7 | -0.648 ± 4.2
CCNC(=O)C[C@@H]1N=C(c2ccc(Cl)cc2)c2cc(OC)ccc2-n2c(C)nnc21 | -0.857 ± 1.7 | -0.849 ± 2.6
Cc1sc2c(c1C)C(c1ccc(Cl)cc1)=N[C@@H](CC(=O)OC(C)(C)C)c1nnc(C)n1-2 | -0.787 ± 5.1 | -1.8 ± 3.2
O=C1/C(=C/c2ccccc2)C[C@@]2(O)[C@H]3Cc4ccc(O)c5c4[C@@]2(CCN3CC2CC2)[C@H]1O5 | -6.6 ± 0.72 | -15.3 ± 12
CCN1C[C@]2(COC)CC[C@H](OC)[C@]34C1[C@H]([C@H](OC)[C@H]23)[C@@]1(OC(C)=O)C[C@H](OC)[C@]2(O)C[C@@H]4[C@@H]1[C@H]2OC(=O)c1ccc(OC)cc1 | -0.539 ± 5 | 1.91 ± 5.7
CCCCCCCCCCCCCC(=O)O[C@@H]1[C@@H](C)[C@@]2(O)[C@@H](C=C(CO)C[C@]3(O)C(=O)C(C)=C[C@@H]23)[C@@H]2C(C)(C)[C@]12OC(C)=O | -9.03 ± 1.6 | -8.71 ± 1.7
CC(C)=CC1C(C(=O)OCc2coc(Cc3ccccc3)c2)C1(C)C (stereo not given) | 3.62 ± 5.2 | 3.34 ± 3.2
CCC(=O)CCCCC[C@@H]1NC(=O)[C@H]2CCCCN2C(=O)[C@H]([C@@H](C)CC)NC(=O)[C@H](Cc2cn(OC)c3ccccc23)NC1=O | -2.97 ± 4.8 | -4.24 ± 4.8
COc1cc([C@@H]2c3cc4c(cc3[C@H](OC(C)=O)[C@H]3COC(=O)[C@H]23)OCO4)cc(OC)c1OC | 2.84 ± 1.3 | 3.45 ± 1.6
CC[C@@H]1/C=C/C=C/C[C@H](C)[C@H](O)[C@](C)(O)C(=O)[C@H](C)[C@@H](O)[C@H](C)C(=O)[C@H](C)[C@@H](O)[C@H](C)/C=C/C(=O)O[C@H]2[C@@H](C)[C@@H](CC1)O[C@@]1(CC[C@@H](C)[C@@H](C[C@H](C)O)O1)[C@@H]2C | -0.303 ± 1.2 | -12.3 ± 12
O=C(O)c1nn(Cc2ccc(Cl)cc2Cl)c2ccccc12 | 0.534 ± 3.2 | -9.02 ± 9.6
COc1cc2c(c(OC)c1OC)-c1ccc(OC)c(=O)cc1[C@@H](NC(C)=O)CC2 | 0.558 ± 0.39 | -0.255 ± 0.013
CCn1cc(C(=O)O)c(=O)c2cc3c(cc21)OCO3 | -0.429 ± 3.7 | -3.62 ± 4.9
CCOC(=O)c1ncn2c1C1CCCN1C(=O)c1cc(OC)ccc1-2 (stereo not given) | -1.29 ± 4.9 | -1.47 ± 2.9
COc1ccc2c3c([nH]c2c1)[C@H](CC(C)C)N1C(=O)[C@H](CCC(=O)OC(C)(C)C)NC(=O)[C@@H]1C3 | -0.402 ± 2.4 | -3 ± 1.7
COc1cc([C@@H]2c3cc4c(cc3[C@@H](O)[C@H]3COC(=O)[C@H]23)OCO4)cc(OC)c1O | 1.24 ± 0.99 | -1.62 ± 2.7
CCCN(CCC)C1CCc2cccc(O)c2C1 (stereo not given) | -0.719 ± 3 | -1.11 ± 2.8
COc1cc([C@@H]2c3cc4c(c(O)c3C[C@H]3COC(=O)[C@@H]32)OCO4)cc(OC)c1OC | 2.01 ± 3.6 | 2.83 ± 0.33
C[C@]12CC[C@@H](O)C[C@@H]1CC[C@@H]1[C@@H]2CC[C@]2(C)[C@@H](C(=O)CO)CC[C@@H]12 | 0.444 ± 4.1 | -2.15 ± 4.3
CC(C)[C@]12O[C@H]1[C@@H]1O[C@]13[C@]1(O[C@H]1C[C@H]1C4=C(CC[C@@]13C)C(=O)OC4)[C@@H]2O | 11.3 | 14.2
C[C@]12CCC(=O)C=C1CC[C@@H]1C2CC[C@]2(C)C(=O)CCC12 (stereo not given in full) | -1.18 ± 0.91 | -3.64 ± 3.7
Clc1ccc(C2=CCCC3CCC2N3)cn1 (stereo not given) | -3.88 ± 6.8 | 0.551 ± 3.4
COc1cc2ccc(=O)oc2c2ccoc12 | 0.424 ± 2.3 | -0.126 ± 2.1
Clc1ccc(C(OCCN2CCCCC2)c2ccccc2)cc1 (stereo not given) | 0.586 ± 1.6 | -0.552 ± 2
c1cc2c(c(N3CCNCC3)c1)OCCO2 | 0.201 ± 6.1 | -0.914 ± 4.9
